# Test results: patent US20240342137A1 (priority 2023, published 2024)
# Some entries share one result that the patent states for a list of compounds.
# Test system: T1, alpha-2 adrenoceptors
# T1 construct: rows headed: Alpha-2 Ki; other: [3H]clonidine displacement, brain membrane; other: alpha-2; lower sensitivity compared to atipamezole; other: alpha-2, vs atipamezole
# Assay type: binding
smiles,measurement,value
c1ccc2c(c1)OCC(C1=NCCN1)O2 (stereo not shown) [Idazoxan],lower sensitivity compared to atipamezole,over 80 fold
